Measured values as given in the supplement of paper PMC12872613.
Where a name gives a salt, the structure may show the parent alone. This is one part of the list. No stated cut-off is given here; in the data, active = 0.7 or more and inactive = the rest. Most values come without repeats; read them as rough.

tested on: MiaPaCa-2 CLSA-25; assay: cell death relative to DMSO vehicle (fraction); higher = more cytotoxic; settings: 5 µM; treatment time 48 h; medium cystine 25 µM

**Q.** How did the cell death turn out when `CC(C)C[C@H](NC(=O)[C@H](Cc1ccccc1)NC(=O)c1cnccn1)B(O)O` [Bortezomib] was run?
**A.** inactive: 0.505

**Q.** Which cell death does the source give for `CC(=O)OCC(=O)[C@@]1(O)CC[C@H]2[C@@H]3CCC4=CC(=O)CC[C@]4(C)[C@H]3C(=O)C[C@@]21C` [Cortisone acetate] here?
**A.** inactive: -0.00348

**Q.** With `CN(NC(=O)CC(=O)NN(C)C(=S)c1ccccc1)C(=S)c1ccccc1` [Elesclomol] as the compound, how does the cell death read?
**A.** inactive: 0.0994

**Q.** For `Cn1cc(-c2ccncc2)c(-c2ccc(OCc3ccc4ccccc4n3)cc2)n1`, which cell death is on record?
**A.** inactive: 0.602

**Q.** With `Cc1cc(C)nc(NC(=S)N2CCN(Cc3ccc(C(F)(F)F)cc3)CC2)c1` as the compound, how does the cell death read?
**A.** inactive: 0.0797

**Q.** `Cn1c(=O)cc(N2CCC[C@@H](N)C2)n(Cc2cc(F)ccc2C#N)c1=O` [Trelagliptin] was tested. Which cell death did it give?
**A.** inactive: 0.268

**Q.** How did the cell death turn out when `NS(=O)(=O)NCCNc1nonc1/C(=N/O)Nc1ccc(F)c(Br)c1` [Epacadostat] was run?
**A.** inactive: 0.197

**Q.** Which cell death does the source give for `Cc1cn([C@@H]2C[C@@H](O)[C@H](CO)O2)c(=O)[nH]c1=O` [Telbivudine] here?
**A.** inactive: 0.228

**Q.** With `C=C(C)[C@H]1Cc2c(ccc3c2O[C@@H]2COc4cc(OC)c(OC)cc4[C@@H]2C3=O)O1` [Rotenone] as the compound, how does the cell death read?
**A.** inactive: 0.629

**Q.** How did the cell death turn out when `CCN[C@H]1C[C@H](C)S(=O)(=O)c2sc(S(N)(=O)=O)cc21` [Dorzolamide hydrochloride] was run?
**A.** inactive: 0.0364

**Q.** `CCCCC(=O)N(Cc1ccc(-c2ccccc2-c2nnn[nH]2)cc1)[C@H](C(=O)O)C(C)C.CCOC(=O)[C@H](C)C[C@@H](Cc1ccc(-c2ccccc2)cc1)NC(=O)CCC(=O)O` was tested. Which cell death did it give?
**A.** inactive: 0.593

**Q.** How did the cell death turn out when `COc1ccc2c(c1)C(=O)N(CCc1ccc(S(=O)(=O)NC(=O)NC3CCCCC3)cc1)C(=O)C2(C)C` [Gliquidone] was run?
**A.** inactive: 0.0551

**Q.** Which cell death does the source give for `O=C(O)c1c[nH]c2cc(Cl)c(-c3ccc(C4(O)CCC4)cc3)cc12` here?
**A.** inactive: 0.054

**Q.** How did the cell death turn out when `O.O.O.O.O=C([O-])CC(O)(CC(=O)[O-])C(=O)[O-].[Li+].[Li+].[Li+]` [Lithium citrate tribasic tetrahydrate] was run?
**A.** inactive: 0.168

**Q.** `CCOC(=O)O[C@]1(C(=O)OCCl)CC[C@H]2[C@@H]3CCC4=CC(=O)C=C[C@]4(C)[C@H]3[C@@H](O)C[C@@]21C` [Loteprednol etabonate] was tested. Which cell death did it give?
**A.** inactive: 0.514

**Q.** `CCCc1ncc(C[n+]2ccccc2C)c(N)n1` [Amprolium Hydrochloride] was tested. Which cell death did it give?
**A.** inactive: 0.622

**Q.** For `Cc1cc(SCc2sc(-c3ccc(C(F)(F)F)c(F)c3)nc2C)ccc1OCC(=O)O`, which cell death is on record?
**A.** inactive: 0.00183

**Q.** How did the cell death turn out when `O=C(O)CCCC[C@@H]1SC[C@@H]2NC(=O)N[C@@H]21` [D-Biotin] was run?
**A.** inactive: 0.131

**Q.** With `CC(C)(C)C(=O)Oc1ccc(S(=O)(=O)Nc2ccccc2C(=O)NCC(=O)O)cc1` [Sivelestat] as the compound, how does the cell death read?
**A.** inactive: 0.00776

**Q.** Which cell death does the source give for `CC(=O)SCC(Cc1ccccc1)C(=O)NCC(=O)OCc1ccccc1` (centres undefined) [Racecadotril] here?
**A.** inactive: 0.0927

**Q.** Which cell death does the source give for `CCOc1ccc(Cc2cc([C@@H]3O[C@H](CO)[C@@H](O)[C@H](O)[C@H]3O)ccc2Cl)cc1` [Dapagliflozin] here?
**A.** inactive: 0.0602

**Q.** `CC1=C(/C=C/C(C)=C/C=C/C(C)=C\C(=O)O)C(C)(C)CCC1` [Isotretinoin] was tested. Which cell death did it give?
**A.** inactive: 0.147

**Q.** Which cell death does the source give for `CCC(C)(Oc1ccc(C2(c3ccc(OC(C)(CC)C(=O)O)cc3)CCCCC2)cc1)C(=O)O` (centres undefined) [Clinofibrate] here?
**A.** inactive: -0.011

**Q.** Which cell death does the source give for `CCCCCCc1ccc(O)cc1O` [Hexylresorcinol] here?
**A.** inactive: 0.558

**Q.** How did the cell death turn out when `C#CCN(C)Cc1ccccc1` [Pargyline] was run?
**A.** inactive: 0.105

**Q.** With `CCc1cc(C(N)=S)ccn1` [Ethinamide] as the compound, how does the cell death read?
**A.** inactive: 0.143

**Q.** With `CCN(CC)C(=O)/C(C#N)=C/c1cc(O)c(O)c([N+](=O)[O-])c1` [Entacapone] as the compound, how does the cell death read?
**A.** inactive: 0.361

**Q.** Which cell death does the source give for `CC(C)c1nc(CN(C)C(=O)N[C@@H](CCN2CCOCC2)C(=O)N[C@H](CC[C@H](Cc2ccccc2)NC(=O)OCc2cncs2)Cc2ccccc2)cs1` [Cobicistat] here?
**A.** inactive: 0.517

**Q.** Which cell death does the source give for `C=C[C@H]1[C@H](O[C@@H]2O[C@H](CO)[C@@H](O)[C@H](O)[C@H]2O)OC=C2C(=O)OCC[C@]21O` [Swertiamarin] here?
**A.** active: 0.729

**Q.** How did the cell death turn out when `CC1(C)[C@@H](O[C@H]2O[C@H](C(=O)O)[C@@H](O)[C@H](O)[C@H]2O[C@@H]2O[C@H](C(=O)O)[C@@H](O)[C@H](O)[C@H]2O)CC[C@]2(C)[C@H]3C(=O)C=C4[C@@H]5C[C@@](C)(C(=O)O)CC[C@]5(C)CC[C@@]4(C)[C@]3(C)CC[C@@H]12` [Ammonium Glycyrrhizinate] was run?
**A.** inactive: 0.105

**Q.** Which cell death does the source give for `CC(=O)N[C@H]1CSSC[C@@H](C(N)=O)NC(=O)[C@H](C(C)C)NC(=O)[C@H](C)NC(=O)[C@H](Cc2c[nH]cn2)NC1=O` [Exherin trifluoroacetate] here?
**A.** inactive: 0.501

**Q.** Which cell death does the source give for `CCCCC(CC)COC(=O)CC(C(=O)OCC(CC)CCCC)S(=O)(=O)O` (centres undefined) [Docusate sodium] here?
**A.** inactive: 0.0706

**Q.** `Cc1cccc(Nc2cc(Cl)nc(SCC(=O)O)n2)c1C` [Pirinixic Acid] was tested. Which cell death did it give?
**A.** inactive: 0.396

**Q.** Which cell death does the source give for `CCNC(=O)c1noc(-c2cc(C(C)C)c(O)cc2O)c1-c1ccc(CN2CCOCC2)cc1` [Luminespib] here?
**A.** inactive: 0.218

**Q.** With `N[C@@H](CS)C(=O)O` [cysteine] as the compound, how does the cell death read?
**A.** inactive: 0.109

**Q.** With `CN1CC(=O)NC1=N` [Creatinine] as the compound, how does the cell death read?
**A.** inactive: 0.0225

**Q.** With `O=c1cc(-c2ccccc2)oc2cc(O)c(O)c(O)c12` [Baicalein] as the compound, how does the cell death read?
**A.** inactive: 0.0621

**Q.** Which cell death does the source give for `CC(C)OC(=O)CCC/C=C\C[C@@H]1[C@@H](CC[C@@H](O)CCc2ccccc2)[C@H](O)C[C@@H]1O` [Latanoprost] here?
**A.** inactive: 0.124

**Q.** How did the cell death turn out when `CCC(=O)OCC(=O)[C@@]1(OC(=O)CC)[C@@H](C)C[C@H]2[C@@H]3CCC4=CC(=O)C=C[C@]4(C)[C@@]3(F)[C@@H](O)C[C@@]21C` [Betamethasone dipropionate] was run?
**A.** inactive: 0.202
